# Reference: the supplement of paper PMC10470496
# Counter-ions that a name gives are not always drawn. Some of the results follow. Many values rest on one well or one pass, so single values are uncertain.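 The three strains are clinical Candida auris isolates from the CDC resistance isolate bank, from clades III, IV and I, grown in RPMI-1640 at 35°C. Growth is background-corrected OD600 relative to vehicle-only wells on the same plate; a hit meant over 50% inhibition in at least two strains plus a plate-corrected B-score above 0.1.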
# Test system: C. auris AR-387
# Test: growth relative to vehicle control (OD600 ratio) (fraction); higher = less inhibition
# Settings: 1 µM; 24 h
row,SMILES,growth
1,CCOc1cc2ncc(C#N)c(Nc3ccc(OCc4ccccn4)c(Cl)c3)c2cc1NC(=O)/C=C/CN(C)C [Neratinib (HKI-272)],0.96
2,CC(=O)Oc1ccccc1C(=O)O [Aspirin],0.94
3,Cc1ccnc2c1NC(=O)c1cccnc1N2C1CC1 [Nevirapine],1.06
4,O=C(O)c1ccc(-n2nc(-c3ccccc3O)nc2-c2ccccc2O)cc1 [Deferasirox],1.11
5,CC(C(=O)O)c1ccc(C(=O)c2cccs2)cc1 (centres undefined) [Suprofen],0.87
6,NC(=O)N1c2ccccc2C=Cc2ccccc21 [Carbamazepine],0.94
7,NC(=O)c1cccc2cn(-c3ccc([C@@H]4CCCNC4)cc3)nc12 [Niraparib (MK-4827)],1.33
8,COc1cc2nc(N(C)CCCNC(=O)C3CCCO3)nc(N)c2cc1OC (centres undefined) [Alfuzosin HCl],0.8
9,CCn1cc(C(=O)O)c(=O)c2cc(F)c(N3CCNCC3)cc21 [Norfloxacin],0.95
10,COc1nc(C)cnc1NS(=O)(=O)c1cccnc1-c1ccc(-c2nnco2)cc1 [Zibotentan (ZD4054)],1.03
11,Cc1nc2n(c(=O)c1CCN1CCC(c3noc4cc(F)ccc34)CC1)CCCC2 [Risperidone],1
12,O=C1O[C@H]([C@@H](O)CO)C(O)=C1O [Vitamin C],0.76
13,CC(=O)Oc1cc2c(s1)CCN(C(C(=O)C1CC1)c1ccccc1F)C2 (centres undefined) [Prasugrel Hydrochloride],1.05
14,CN(C)[C@@H](CCOc1cccc2ccccc12)c1ccccc1 [Dapoxetine HCl],1.4
15,O=C(O)C1(C(=O)O)CCC1.[NH2-].[NH2-].[Pt+2] [Carboplatin],0.82
16,COc1cc(N)c(Cl)cc1C(=O)NC1CCN(CCCOc2ccc(F)cc2)CC1OC (centres undefined) [Cisapride hydrate],0.61
17,CC(=O)O[C@]1(C(C)=O)CC[C@H]2[C@@H]3C[C@H](C)C4=CC(=O)CC[C@]4(C)[C@H]3CC[C@@]21C [Medroxyprogesterone acetate],0.92
18,O=C1C(O)=C([C@H]2CC[C@H](c3ccc(Cl)cc3)CC2)C(=O)c2ccccc21 [Atovaquone],1.01
19,COc1ccccc1Oc1c(NS(=O)(=O)c2ccc(C(C)(C)C)cc2)nc(-c2ncccn2)nc1OCCO [Bosentan Hydrate],0.58
20,N=C(N)NCCC[C@H](N)C(=O)O [L-Arginine HCl (L-Arg)],1.12

row,SMILES,growth
1,CC(C)Cc1ccc(C(C)C(=O)O)cc1 (centres undefined) [Ibuprofen Lysine],1.28
2,COc1ccc2cc([C@H](C)C(=O)O)ccc2c1 [Naproxen Sodium],0.76
3,Cc1cccc(-c2nn3c(c2-c2ccnc4ccc(C(N)=O)cc24)CCC3)n1,0.96
4,COc1ccc(C(=O)c2ccccc2)c(O)c1 [Oxybenzone],0.96
5,CO/N=C(\C(=O)N[C@@H]1C(=O)N2C(C(=O)OCOC(=O)C(C)(C)C)=C(/C=C\c3scnc3C)CS[C@H]12)c1csc(N)n1 [Cefditoren Pivoxil],0.77
6,CC(C(=O)O)c1cccc(Oc2ccccc2)c1 (centres undefined) [Fenoprofen Calcium],1
7,NC(=O)c1cnccn1 [Pyrazinamide],0.69
8,CSc1nc2cc(Cl)c(Oc3cccc(Cl)c3Cl)cc2[nH]1 [Triclabendazole],0.85
9,Cn1nnc2c(C(N)=O)ncn2c1=O [Temozolomide],1.01
10,CCCSc1ccc2[nH]c(NC(=O)OC)nc2c1 [Albendazole],0.69
11,CC(=O)O[C@]1(C(C)=O)CC[C@H]2[C@@H]3C[C@H](C)C4=CC(=O)C=C[C@]4(C)[C@@]3(F)[C@@H](O)C[C@@]21C [Fluorometholone Acetate],1.27
12,CC(C)CCCCC(=O)N[C@@H](CCN)C(=O)N[C@H](C(=O)N[C@@H](CCN)C(=O)N[C@H]1CCNC(=O)[C@H]([C@@H](C)O)NC(=O)[C@H](CCN)NC(=O)[C@H](CCN)NC(=O)[C@H](CC(C)C)NC(=O)[C@@H](Cc2ccccc2)NC(=O)[C@H](CCN)NC1=O)[C@@H](C)O [Polymyxin B sulphate],0.68
13,NCCc1c[nH]cn1 [Histamine 2HCl],0.9
14,O=c1[nH]c(=O)n([C@H]2C[C@H](O)[C@@H](CO)O2)cc1F [Floxuridine],0.92
15,N[C@@H](Cc1cc(I)c(Oc2cc(I)c(O)c(I)c2)c(I)c1)C(=O)O [L-Thyroxine],0.89
16,OC(Cn1cncn1)(Cn1cncn1)c1ccc(F)cc1F [Fluconazole],0.61
17,C#Cc1cccc(Nc2ncnc3cc(OC)c(OCCCCCCC(=O)NO)cc23)c1,1.13
18,CCCc1nc(C)c2c(=O)nc(-c3cc(S(=O)(=O)N4CCN(CC)CC4)ccc3OCC)[nH]n12 [Vardenafil HCl Trihydrate],0.67
19,CCn1cc(C(=O)O)c(=O)c2cc(F)c(N3CCNCC3)nc21 [Enoxacin],1.16

# Quoted from the listing:
# growth with NCCc1c[nH]cn1 [Histamine 2HCl] reads 0.9
# growth with C#Cc1cccc(Nc2ncnc3cc(OC)c(OCCCCCCC(=O)NO)cc23)c1 reads 1.13
